## Primary screen of a compound library

Mtb growth Cornell: 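Whole-cell assay for inhibitors of Mycobacterium tuberculosis growth, labelled Cornell in the record; the read-out is not stated. The concentration is filed as 10 mM, unlikely as a test dose, so the dose is not known. Higher means stronger inhibition (inferred from two other growth screens of the library). Size under these conditions: about 53,000 compounds, about 900 of them at 50% or above in at least one test.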
Mtb heat-shock: 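Assay on Mycobacterium tuberculosis, filed only as a heat shock assay from Cornell; the read-out is not stated. The concentration is filed as 10 mM, unlikely as a test dose, so the dose is not known. Higher reads as stronger inhibition (inferred: compounds with an IC50 in retests scored well above the rest). About 69,000 compounds were tested under these conditions; 1.4% (about 930) showed 50% or more at least once.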

The filed quantity is “Percent Effect” (%).
The record does not define 0% and 100%; most values in the screen are far below 50% and negative numbers occur (in some assays of this library far below -100).
Compounds were drawn at random from those tested, without regard to their results.

CC(C)NC(=O)N1CCc2nc(C(=O)NCc3ccccc3)sc2CC1 read Mtb growth Cornell: 14.15%; Mtb heat-shock: 4.836%.
CC(Cc1cnccn1)NC(=O)COc1ccc(F)cc1F (centres undefined) read Mtb growth Cornell: 21.79%; Mtb heat-shock: -6.819%.
CN(C)S(=O)(=O)c1cccc(NC(=O)Cc2ccon2)c1 read Mtb growth Cornell: 8.33%; Mtb heat-shock: 3.594%.
O=C(NCC1CCN(C(=O)c2ccoc2)CC1)c1ccccc1Br read Mtb growth Cornell: -2.77%; Mtb heat-shock: 5.166%.
COc1coc(C(=O)Nc2nc(-c3ccccn3)cs2)cc1=O read Mtb growth Cornell: 22.14%; Mtb heat-shock: 1.222%.
CN(CCc1ccccc1)Cc1nc(-c2cnccn2)no1 read Mtb heat-shock: 1.896%.
Cc1ncc(CNC(=O)N(C)C2CCN(c3ccccc3)C2=O)s1 (centres undefined) read Mtb heat-shock: 4.957%.
N#Cc1c(F)cccc1Nc1cnn(CC(N)=O)c1 read Mtb growth Cornell: 30.98%; Mtb heat-shock: -48.42%.
CCCNC(=O)CCc1ccnc2ccccc12 read Mtb growth Cornell: 9.371%; Mtb heat-shock: 2.167%.
CSCC(=O)N1CCc2[nH]nc(-c3ccc4c(c3)OCO4)c2C1 read Mtb growth Cornell: 12.67%; Mtb heat-shock: 10.53%.
CC(C)(CNC(=O)COc1cccc(F)c1)C(N)=O read Mtb heat-shock: -2.815%.
O=C(NCc1cscn1)NC1CCN(c2ncccc2Cl)C1 (centres undefined) read Mtb growth Cornell: -15.31%; Mtb heat-shock: -32.2%.
Cc1cn2nc(N3CCCC3Cn3cccn3)sc2n1 (centres undefined) read Mtb heat-shock: -26.63%.
CC(=O)N(C)Cc1ccccc1NC(=O)c1cnn(C)c1C read Mtb growth Cornell: -1.325%; Mtb heat-shock: 14.39%.
COc1ccc(C)cc1C(=O)N1CCCC(n2nc(C)nc2C)C1 (centres undefined) read Mtb heat-shock: -3.223%.
Cc1occc1C(=O)N1CCn2cnc(COCC3CC3)c2C1 read Mtb growth Cornell: 10.29%; Mtb heat-shock: 35.07%.
CC(C)n1ncc2c1NC(=O)CC21C(=O)Nc2c(Br)cc(Cl)cc21 (centres undefined) read Mtb growth Cornell: 20.84%; Mtb heat-shock: -7.845%.
COCC(C)NC(=O)c1cncc(Br)c1 (centres undefined) read Mtb growth Cornell: -3.475%; Mtb heat-shock: 23.32%.
CN(Cc1ccc2c(c1)OCCO2)C(=O)NCCc1cnn(C)c1 read Mtb growth Cornell: 0.2708%; Mtb heat-shock: 5.626%.
CS(=O)(=O)N1CCC(Oc2ccc(C(=O)NC3CCCC3)cc2Cl)CC1 read Mtb growth Cornell: 1.517%; Mtb heat-shock: 7.533%.
O=c1nc(SCc2ccncc2)c2c(n1CCO)CCC2 read Mtb growth Cornell: -11.03%; Mtb heat-shock: 8.464%.
CC(C)c1nnc(NC(=O)NC2CCOc3ccccc32)s1 (centres undefined) read Mtb growth Cornell: -23.02%; Mtb heat-shock: -15.44%.
CCCN(C)S(=O)(=O)NC(=O)c1ccc(CC)o1 read Mtb growth Cornell: -3.592%; Mtb heat-shock: 4.882%.
COc1ccc(Cl)cc1NC(=O)CNc1ccn(CC(N)=O)n1 read Mtb growth Cornell: -26.9%; Mtb heat-shock: -11.61%.
CNc1cc(C)nc(-c2cc(NC3CCNCC3)nc3[nH]ccc23)n1 read Mtb growth Cornell: 12.28%; Mtb heat-shock: -20.27%.
Cc1cc2c(=O)n3c(nc2s1)CCN(C(=O)c1cnn(C)c1)CC3 read Mtb growth Cornell: -7.065%; Mtb heat-shock: 5.527%.
Cn1ccnc1-c1cccc(NC(=O)NCC(=O)NC(C)(C)C)c1 read Mtb growth Cornell: -6.508%; Mtb heat-shock: -27.07%.
Cn1ccc(CN2CC(Cc3nccc4cc[nH]c34)C2)n1 read Mtb growth Cornell: 1.782%; Mtb heat-shock: -21.09%.
CCN(Cc1cnc(-c2ccccn2)nc1)C1CCS(=O)(=O)C1 (centres undefined) read Mtb growth Cornell: -1.6%; Mtb heat-shock: 4.946%.
Cc1cc(N2CC(c3n[nH]c4nccnc34)C2)ncn1 read Mtb growth Cornell: -21.24%; Mtb heat-shock: -14.13%.
Cc1nccn1CCC(=O)N1CCCN(c2ccccc2)CC1 read Mtb heat-shock: -4.397%.
COCc1nc(C(=O)N2CCCCC2Cn2cccn2)cs1 (centres undefined) read Mtb growth Cornell: 13.67%; Mtb heat-shock: 17.42%.
Cc1ccc(C(=O)N2CCCC(n3cccn3)C2)cc1S(C)(=O)=O (centres undefined) read Mtb heat-shock: 13.42%.
COc1cc(N2CCC3(CC(=O)N(Cc4csc(C)n4)C3)C2)ncn1 (centres undefined) read Mtb growth Cornell: -3.08%; Mtb heat-shock: 25.23%.
Cc1cnc(N2CCOC3(CCCN(c4ncccn4)C3)C2)nc1 (centres undefined) read Mtb growth Cornell: 28.3%; Mtb heat-shock: -22.59%.
CCNC(=O)c1sccc1N(C)S(=O)(=O)c1ccc(Cl)cc1 read Mtb growth Cornell: -10.23%; Mtb heat-shock: -13.03%.
Cc1nn(C)c(Cl)c1C1CCCN1c1ncnc2[nH]ccc12 (centres undefined) read Mtb growth Cornell: -15.46%; Mtb heat-shock: -7.836%.
CSCC(=O)N1C[C@H](c2ccc(C)o2)[C@@H](N)C1 read Mtb growth Cornell: -42.22%; Mtb heat-shock: 4.602%.
CCOc1ccc(CC(=O)N2CCCC(n3nc(C)nc3C)C2)cc1 (centres undefined) read Mtb growth Cornell: -47.88%; Mtb heat-shock: -5.332%.

From ChEMBL document CHEMBL3988442, “University of Dundee, Small-Polar-MMV Screening Library” (2021).